These are yes or no findings as the source states them, for the method shown. Binding seen in cells or lysates may run through a third protein. Binding calls can cover weak binding; strength is not graded here.

Results on one substance are retold here after paper PMC8599447.

This experiment deals with T1, TFCP2, endogenously expressed (human (endogenous in pancreatic cancer cells)) (UniProt Q12800).
T1 sequence: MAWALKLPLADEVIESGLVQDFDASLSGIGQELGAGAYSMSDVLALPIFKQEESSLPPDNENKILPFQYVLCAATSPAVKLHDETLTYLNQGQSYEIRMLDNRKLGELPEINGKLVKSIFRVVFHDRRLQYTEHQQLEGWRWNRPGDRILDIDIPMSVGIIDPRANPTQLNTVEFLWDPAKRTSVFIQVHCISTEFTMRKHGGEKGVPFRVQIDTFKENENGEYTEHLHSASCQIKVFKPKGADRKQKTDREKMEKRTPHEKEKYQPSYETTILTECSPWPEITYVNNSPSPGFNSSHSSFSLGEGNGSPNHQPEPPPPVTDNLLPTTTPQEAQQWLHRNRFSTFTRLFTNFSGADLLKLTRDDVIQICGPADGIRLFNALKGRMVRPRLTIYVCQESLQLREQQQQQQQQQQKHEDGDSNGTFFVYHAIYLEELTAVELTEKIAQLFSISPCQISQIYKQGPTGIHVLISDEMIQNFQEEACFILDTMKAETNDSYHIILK
Nature of the experiment: co-IP; endogenous proteins; RIPA lysate, primary antibody overnight at 4°C, Protein A/G agarose beads, western blot.

As for SREBP2(N), endogenous, the binding result is listed as “binds”.
